Read-outs that look alike come from different tables or passages of the source. The structures given here were assigned with low confidence; some may be wrong.
Key:
[1] = biological target: recombinant rhesus mineralocorticoid receptor (Macaca mulatta, UniProt A0A5F8ATS5); experiment: Mineralocorticoid receptor binding affinity, [3H]-aldosterone filter binding assay
Cav1.2 = Cav1.2 (Homo sapiens, UniProt Q13936); experiment: Calcium channel block, FLIPR TETRA fluorescence assay in HEK293 cells expressing L-type calcium channels; settings: 25 mM potassium

Protein sequences, listed by entry. Tags and fused reporters are not part of them. Residues count along the entry.
UniProt A0A5F8ATS5, 1-984: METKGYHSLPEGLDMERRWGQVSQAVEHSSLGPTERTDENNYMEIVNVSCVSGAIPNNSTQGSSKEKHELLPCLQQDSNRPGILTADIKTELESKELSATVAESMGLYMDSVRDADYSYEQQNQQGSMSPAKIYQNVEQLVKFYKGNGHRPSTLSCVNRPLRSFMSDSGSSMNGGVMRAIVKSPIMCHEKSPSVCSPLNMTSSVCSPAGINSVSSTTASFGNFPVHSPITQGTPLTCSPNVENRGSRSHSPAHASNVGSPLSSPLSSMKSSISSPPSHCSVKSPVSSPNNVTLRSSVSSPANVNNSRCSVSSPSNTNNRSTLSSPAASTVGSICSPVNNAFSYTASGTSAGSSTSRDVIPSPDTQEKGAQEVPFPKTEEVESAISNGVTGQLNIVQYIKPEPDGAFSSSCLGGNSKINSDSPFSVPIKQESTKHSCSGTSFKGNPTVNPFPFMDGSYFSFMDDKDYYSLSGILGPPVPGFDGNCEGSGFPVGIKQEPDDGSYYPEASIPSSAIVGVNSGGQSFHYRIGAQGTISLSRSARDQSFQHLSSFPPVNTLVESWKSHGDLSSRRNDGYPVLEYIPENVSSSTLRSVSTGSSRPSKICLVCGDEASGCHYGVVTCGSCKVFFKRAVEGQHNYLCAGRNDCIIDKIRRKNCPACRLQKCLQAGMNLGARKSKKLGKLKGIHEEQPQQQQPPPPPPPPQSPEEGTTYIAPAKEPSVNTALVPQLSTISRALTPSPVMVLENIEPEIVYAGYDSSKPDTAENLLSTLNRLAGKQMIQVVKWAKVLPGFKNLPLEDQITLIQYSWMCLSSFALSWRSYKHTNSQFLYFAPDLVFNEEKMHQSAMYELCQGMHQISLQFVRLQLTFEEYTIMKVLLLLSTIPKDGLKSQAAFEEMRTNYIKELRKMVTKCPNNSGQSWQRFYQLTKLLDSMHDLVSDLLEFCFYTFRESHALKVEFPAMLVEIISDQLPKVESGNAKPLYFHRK
UniProt Q13936, whole entry: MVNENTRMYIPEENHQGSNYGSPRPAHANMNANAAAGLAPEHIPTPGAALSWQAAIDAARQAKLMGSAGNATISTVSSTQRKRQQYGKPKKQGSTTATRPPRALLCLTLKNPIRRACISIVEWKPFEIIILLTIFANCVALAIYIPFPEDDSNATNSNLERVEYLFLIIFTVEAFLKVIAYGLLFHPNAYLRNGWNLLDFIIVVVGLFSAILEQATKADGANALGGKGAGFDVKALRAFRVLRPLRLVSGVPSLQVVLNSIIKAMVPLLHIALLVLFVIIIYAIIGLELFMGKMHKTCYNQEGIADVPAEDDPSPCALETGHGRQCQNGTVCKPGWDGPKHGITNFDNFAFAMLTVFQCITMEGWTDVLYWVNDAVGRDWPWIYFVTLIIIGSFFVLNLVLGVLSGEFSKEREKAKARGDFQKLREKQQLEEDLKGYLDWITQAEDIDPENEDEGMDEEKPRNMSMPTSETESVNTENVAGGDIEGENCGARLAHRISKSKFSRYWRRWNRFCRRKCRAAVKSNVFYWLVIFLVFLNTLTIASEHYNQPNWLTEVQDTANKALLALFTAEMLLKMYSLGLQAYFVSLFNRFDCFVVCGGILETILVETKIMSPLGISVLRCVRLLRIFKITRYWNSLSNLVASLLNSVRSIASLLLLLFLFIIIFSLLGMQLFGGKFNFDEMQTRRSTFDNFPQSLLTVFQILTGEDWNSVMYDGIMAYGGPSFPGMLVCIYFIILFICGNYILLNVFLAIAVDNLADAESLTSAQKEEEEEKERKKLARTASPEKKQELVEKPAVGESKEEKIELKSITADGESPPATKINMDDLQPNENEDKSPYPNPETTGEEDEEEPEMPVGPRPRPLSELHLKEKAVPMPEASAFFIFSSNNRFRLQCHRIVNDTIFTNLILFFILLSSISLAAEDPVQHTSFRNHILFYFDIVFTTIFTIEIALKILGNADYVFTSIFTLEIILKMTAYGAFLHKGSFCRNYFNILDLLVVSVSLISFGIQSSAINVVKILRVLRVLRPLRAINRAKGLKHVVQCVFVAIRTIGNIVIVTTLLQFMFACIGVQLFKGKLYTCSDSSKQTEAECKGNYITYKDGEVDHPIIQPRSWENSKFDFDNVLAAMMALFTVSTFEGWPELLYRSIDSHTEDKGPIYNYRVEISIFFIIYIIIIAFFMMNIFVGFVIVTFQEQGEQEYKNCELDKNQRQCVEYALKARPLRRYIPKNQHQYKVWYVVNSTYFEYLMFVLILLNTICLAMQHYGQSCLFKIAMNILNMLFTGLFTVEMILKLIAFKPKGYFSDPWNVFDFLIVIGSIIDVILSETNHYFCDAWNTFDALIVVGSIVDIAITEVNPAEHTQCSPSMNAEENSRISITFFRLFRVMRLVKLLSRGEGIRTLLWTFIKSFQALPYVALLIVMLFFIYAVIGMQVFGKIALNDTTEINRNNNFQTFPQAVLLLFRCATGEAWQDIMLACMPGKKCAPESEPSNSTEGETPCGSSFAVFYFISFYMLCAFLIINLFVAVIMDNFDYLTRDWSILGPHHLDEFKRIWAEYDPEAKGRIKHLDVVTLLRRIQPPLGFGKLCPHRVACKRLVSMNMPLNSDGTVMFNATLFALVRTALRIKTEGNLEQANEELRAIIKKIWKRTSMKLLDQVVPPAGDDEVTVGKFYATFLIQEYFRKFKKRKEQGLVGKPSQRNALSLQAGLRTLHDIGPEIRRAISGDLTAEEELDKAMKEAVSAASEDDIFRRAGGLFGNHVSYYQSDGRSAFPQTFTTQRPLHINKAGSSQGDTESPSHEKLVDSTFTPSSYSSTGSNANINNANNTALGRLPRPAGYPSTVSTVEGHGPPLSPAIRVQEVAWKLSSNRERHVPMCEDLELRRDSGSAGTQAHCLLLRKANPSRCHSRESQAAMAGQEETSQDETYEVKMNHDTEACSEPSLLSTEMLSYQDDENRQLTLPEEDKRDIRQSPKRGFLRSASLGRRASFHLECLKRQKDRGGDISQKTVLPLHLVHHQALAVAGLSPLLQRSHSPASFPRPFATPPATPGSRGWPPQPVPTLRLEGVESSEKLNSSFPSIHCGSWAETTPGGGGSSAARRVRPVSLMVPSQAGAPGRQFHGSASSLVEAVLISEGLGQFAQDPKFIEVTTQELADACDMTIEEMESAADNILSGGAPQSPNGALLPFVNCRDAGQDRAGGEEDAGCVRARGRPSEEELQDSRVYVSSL
UniProt Q08289, whole entry partner: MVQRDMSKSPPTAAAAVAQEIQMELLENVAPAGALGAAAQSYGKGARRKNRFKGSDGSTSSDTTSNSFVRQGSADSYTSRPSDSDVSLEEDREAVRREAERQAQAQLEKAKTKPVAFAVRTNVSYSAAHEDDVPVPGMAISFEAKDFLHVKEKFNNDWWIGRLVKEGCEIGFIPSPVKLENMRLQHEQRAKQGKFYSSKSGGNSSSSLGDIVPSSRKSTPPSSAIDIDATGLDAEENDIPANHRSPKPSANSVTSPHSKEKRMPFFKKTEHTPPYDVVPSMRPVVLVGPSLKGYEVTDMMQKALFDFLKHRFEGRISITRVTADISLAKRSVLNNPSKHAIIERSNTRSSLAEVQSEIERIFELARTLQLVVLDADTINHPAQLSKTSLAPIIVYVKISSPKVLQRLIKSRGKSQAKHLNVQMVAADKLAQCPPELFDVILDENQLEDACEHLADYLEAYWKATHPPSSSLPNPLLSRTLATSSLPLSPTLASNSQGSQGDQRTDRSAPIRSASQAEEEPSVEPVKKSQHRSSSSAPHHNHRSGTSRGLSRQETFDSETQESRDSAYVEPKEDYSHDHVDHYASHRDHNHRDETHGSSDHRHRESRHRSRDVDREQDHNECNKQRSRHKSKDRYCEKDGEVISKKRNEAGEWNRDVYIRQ
UniProt P54289, 25-946 partner limits assumed: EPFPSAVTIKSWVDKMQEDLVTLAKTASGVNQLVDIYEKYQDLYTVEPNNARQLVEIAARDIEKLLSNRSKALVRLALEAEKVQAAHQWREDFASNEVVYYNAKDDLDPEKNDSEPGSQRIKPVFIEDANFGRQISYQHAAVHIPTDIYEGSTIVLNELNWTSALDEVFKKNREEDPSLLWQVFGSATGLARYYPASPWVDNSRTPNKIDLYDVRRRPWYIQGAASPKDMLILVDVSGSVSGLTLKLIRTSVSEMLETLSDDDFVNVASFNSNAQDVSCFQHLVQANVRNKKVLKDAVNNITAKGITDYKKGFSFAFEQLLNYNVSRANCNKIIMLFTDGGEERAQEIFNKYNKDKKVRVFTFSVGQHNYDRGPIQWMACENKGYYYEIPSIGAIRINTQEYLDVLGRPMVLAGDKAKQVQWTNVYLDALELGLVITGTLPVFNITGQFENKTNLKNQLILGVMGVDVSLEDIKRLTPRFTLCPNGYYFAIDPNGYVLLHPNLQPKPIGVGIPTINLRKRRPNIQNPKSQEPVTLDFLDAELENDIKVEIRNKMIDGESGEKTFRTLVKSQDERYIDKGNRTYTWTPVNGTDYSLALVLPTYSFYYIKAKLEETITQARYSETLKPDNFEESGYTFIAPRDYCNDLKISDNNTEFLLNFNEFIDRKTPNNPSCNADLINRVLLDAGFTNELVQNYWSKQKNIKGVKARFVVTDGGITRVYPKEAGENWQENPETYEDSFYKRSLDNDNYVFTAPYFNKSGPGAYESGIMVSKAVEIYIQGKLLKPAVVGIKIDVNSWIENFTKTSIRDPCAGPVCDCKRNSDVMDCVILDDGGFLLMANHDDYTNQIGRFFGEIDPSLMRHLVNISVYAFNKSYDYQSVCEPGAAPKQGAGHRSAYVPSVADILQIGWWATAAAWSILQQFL
UniProt P54289, 947-1103 partner limits assumed: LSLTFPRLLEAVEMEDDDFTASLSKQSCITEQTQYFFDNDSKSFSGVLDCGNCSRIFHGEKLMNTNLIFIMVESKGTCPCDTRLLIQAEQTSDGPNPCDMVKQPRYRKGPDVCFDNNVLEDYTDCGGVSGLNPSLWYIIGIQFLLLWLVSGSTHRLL

- Ki ([1]; read-out: MRBIND Ki (nM) Average, average of Rep#1 and Rep#2): 21.5 nM
- Ki ([1]; read-out: MRBIND Ki (nM) Rep#1, replicate 1): 32 nM
- Ki ([1]; read-out: MRBIND Ki (nM) Rep#2, replicate 2): 11 nM
Structure (SMILES): COc1cc(C2C(C(=O)OCc3ccccc3)=C(C)NC(C)=C2C(=O)OCc2ccccc2)ccc1O
- FLIPRIETRA Cav1.2 % Inhibition 0.3 μM (Cav1.2; 0.3 μM compound): 45%
- FLIPRIETRA Cav1.2 % Inhibition 1 μm (Cav1.2; 1 μm compound): 76%
- FLIPRIETRA Cav1.2 % Inhibition 3 μm (Cav1.2; 3 μm compound): 87%
- FLIPRIETRA Cav1.2 % Inhibition 10 μm (Cav1.2; 10 μm compound): 93%
- FLIPRIETRA Cav1.2 % Inhibition 30 μm (Cav1.2; 30 μm compound): 106%
